The values that follow come from paper PMC5196435.

By UniProt entry, the sequences of proteins in these tests, tags left out. Where a name states a change or a piece, a line headed by the entry shows the natural chain unless it says otherwise. Chains listed by the source or under a name are the forms on record and can include a tag or linker. Residues count along the entry.
UniProt Q13158, residues 97-181: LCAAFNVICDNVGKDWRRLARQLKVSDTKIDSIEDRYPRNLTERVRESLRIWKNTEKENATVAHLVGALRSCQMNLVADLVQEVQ
full-length human wild-type Fas fused to a fluorescent protein (P25445, residues 26-335): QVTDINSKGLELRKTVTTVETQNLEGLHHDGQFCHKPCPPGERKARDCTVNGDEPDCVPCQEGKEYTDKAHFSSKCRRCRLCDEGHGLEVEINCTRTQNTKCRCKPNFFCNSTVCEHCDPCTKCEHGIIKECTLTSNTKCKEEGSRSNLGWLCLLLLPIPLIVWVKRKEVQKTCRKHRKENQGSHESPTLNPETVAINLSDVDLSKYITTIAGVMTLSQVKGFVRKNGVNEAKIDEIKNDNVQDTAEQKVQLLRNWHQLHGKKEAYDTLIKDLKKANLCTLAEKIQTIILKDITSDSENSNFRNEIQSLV
full-length human Fas C199V palmitoylation mutant fused to a fluorescent protein (P25445, form named): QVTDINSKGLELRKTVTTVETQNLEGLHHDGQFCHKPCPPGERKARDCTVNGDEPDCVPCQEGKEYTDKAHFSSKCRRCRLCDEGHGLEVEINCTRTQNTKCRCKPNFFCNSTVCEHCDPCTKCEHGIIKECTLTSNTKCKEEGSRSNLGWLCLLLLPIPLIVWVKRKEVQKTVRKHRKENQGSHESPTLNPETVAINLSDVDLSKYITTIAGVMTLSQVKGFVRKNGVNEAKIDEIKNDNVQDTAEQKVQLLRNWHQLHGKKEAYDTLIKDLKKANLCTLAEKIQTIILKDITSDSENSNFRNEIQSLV

These are yes or no findings as the source states them, for the method shown. Binding seen in cells or lysates may run through a third protein. Some binding calls cover weakened binding; strength is not graded here.

This experiment addresses human FADD death domain fused to a fluorescent protein (human) (UniProt Q13158). The experiment can be described thus: FRET or BRET; flow cytometric detection of FRET between CFP and YFP fusion proteins in living HEK293T cells, 48 h post-transfection, 447/488 nm dual laser excitation; cells gated to comparable expression of the CFP and YFP fusion proteins. Background: In BRET a luciferase serves as donor, and the signal depends on an acceptor being close.

In the case of “full-length human Fas C199V palmitoylation mutant fused to a fluorescent protein (from UniProt P25445 26-335) (receptor)”, the binding result is given as “binds”.

For “full-length human wild-type Fas fused to a fluorescent protein (from UniProt P25445 26-335) (receptor)”, the binding entry was “binds”.
